Test results as given in publication PMC11514270.
Results are given in words; binding and its absence hold for the method and conditions named. In cells and extracts the contact can be indirect. Some binding calls cover weakened binding; strength is not graded here.

Amino acid sequences for entries named in this document (tags omitted). Residues count along the entry.
UniProt Q9H0J9: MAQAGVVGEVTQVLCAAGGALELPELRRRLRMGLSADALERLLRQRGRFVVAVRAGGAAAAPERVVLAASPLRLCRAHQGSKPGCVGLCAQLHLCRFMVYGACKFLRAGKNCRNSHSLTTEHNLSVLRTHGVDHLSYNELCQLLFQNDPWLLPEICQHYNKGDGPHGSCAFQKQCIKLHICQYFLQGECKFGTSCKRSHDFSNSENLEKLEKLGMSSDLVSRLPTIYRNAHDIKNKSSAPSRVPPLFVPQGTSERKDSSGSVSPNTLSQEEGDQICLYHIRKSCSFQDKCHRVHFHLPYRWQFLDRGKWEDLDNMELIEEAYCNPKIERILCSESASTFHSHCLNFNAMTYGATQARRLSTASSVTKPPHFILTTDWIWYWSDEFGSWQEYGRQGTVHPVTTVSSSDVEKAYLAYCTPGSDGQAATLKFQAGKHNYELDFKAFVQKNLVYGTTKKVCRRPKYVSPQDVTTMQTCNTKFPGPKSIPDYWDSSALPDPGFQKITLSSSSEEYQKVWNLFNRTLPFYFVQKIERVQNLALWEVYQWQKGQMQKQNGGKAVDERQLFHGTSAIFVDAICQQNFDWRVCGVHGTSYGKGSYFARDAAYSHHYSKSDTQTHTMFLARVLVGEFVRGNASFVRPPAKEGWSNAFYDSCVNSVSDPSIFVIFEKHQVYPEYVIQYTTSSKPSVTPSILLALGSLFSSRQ
UniProt P05161, residues 1-157: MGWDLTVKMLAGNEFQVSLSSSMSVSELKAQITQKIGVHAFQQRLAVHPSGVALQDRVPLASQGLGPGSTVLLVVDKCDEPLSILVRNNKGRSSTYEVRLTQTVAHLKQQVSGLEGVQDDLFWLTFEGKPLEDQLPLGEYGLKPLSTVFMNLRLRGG

Legend:
[1] = target: Poly (ADP-ribose) polymerase family member 12 (PARP12) (human (endogenous in primary human chondrocytes)) (UniProt Q9H0J9); experiment: co-IP; endogenous proteins of PHC lysate; IP of PARP12, immunoblot for ISG15 and MFN1/2 (antibodies in Table S3)
[2] = target: Interferon-stimulated gene 15 (ISG15) (human (endogenous in primary human chondrocytes)) (UniProt P05161); experiment: co-IP; endogenous proteins of PHC lysate; reverse IP with antibodies to ISG15, MFN1 or MFN2, immunoblot for PARP12 (antibodies in Table S3)

binding [1] | binding [2] | Substance
binds | – | Interferon-stimulated gene 15 (ISG15) (from UniProt P05161 1-157)
– | binds | Poly (ADP-ribose) polymerase family member 12 (PARP12) (from UniProt Q9H0J9 1-701)
